What was measured:
[1] = 3 M KIT Test (Tappi T 559 Grease resistance) on SFAE coated base paper; conditions: SFAE coated Southworth base paper
Experimental: (§1) A Southworth paper was chosen as a base paper. The base paper was approximately a 40# sheet with a Gurley porosity running around 200 sec.
(§2) Three different specific SFAE were prepared, dissolved in an organic solvent (a solution of 70% ethanol, and 30% chloroform), and applied to the base paper via hand drawdown at the coating weight listed in Table 2. The coating weight is the weight (pounds/ton) is the weight of the specific SFAE after the organic solvent was evaporated. Once the papers were dried and conditioned, the SFAE coated base papers were tested for water resistance and lipid resistance (OGR) using various tests, and compared to uncoated base paper as a control.
(§3) Oil and grease resistance was tested using several tests: • (i) a 3 M KIT Test (Tappi Standard Test Method T 559 “Grease resistance”), • (ii) a Folded KIT Test, wherein the paper is subjected to a 180° fold, reopoend, and then grease is placed on the resulting crease according to the same 3 M KIT Test. • (iii) oil Cobb tests using vegetable oil adapted from Tappi Standard Test Method T 441 om-20 at room temperature of about 20-23° C. and at 100° C.; and • (iv) an Oil Drop test in a 100° C. oven.

[2] = Folded KIT Test (180° fold, grease on crease) on SFAE coated base paper; conditions: paper folded 180°, reopened, SFAE coated Southworth base paper
Experimental: as §1, §2, §3

[3] = Oil Cobb test using vegetable oil at room temperature on SFAE coated base paper; conditions: room temperature about 20-23° C., SFAE coated Southworth base paper
Experimental: as §1, §2, §3

[4] = Oil Cobb test using vegetable oil at 100° C. on SFAE coated base paper; conditions: SFAE coated Southworth base paper
Experimental: as §1, §2, §3

Substance	KIT [1]	Folded KIT [2]	Oil Cobb (50 sec) [3]	100° C. Oil Cobb (60 sec) [4]
trehalose distearate	Pass 6 Fail 7	Pass 3 Fail 4	4.8	6.4
trehalose dilaurate	Pass 6 PH 7 Fail 8	Pass 3 Fail 3	3.2	4.8
trehalose dipalmitate	Pass 5 PH 6 Fail 7	Fail <3	4	14.4

Reference: patent US20230265614A1, “WATER INSOLUBLE, HIGH MELTING POINT SACCHARIDE FATTY ACID ESTERS (SFAE)” (GREENTECH GLOBAL PTE. LTD., priority 2021, published 2023)
